In article PMC10939015 one finds binding data, which are given here for one substance.

Protein sequences, listed by entry. Tags and fused reporters are not part of them.
UniProt P12004: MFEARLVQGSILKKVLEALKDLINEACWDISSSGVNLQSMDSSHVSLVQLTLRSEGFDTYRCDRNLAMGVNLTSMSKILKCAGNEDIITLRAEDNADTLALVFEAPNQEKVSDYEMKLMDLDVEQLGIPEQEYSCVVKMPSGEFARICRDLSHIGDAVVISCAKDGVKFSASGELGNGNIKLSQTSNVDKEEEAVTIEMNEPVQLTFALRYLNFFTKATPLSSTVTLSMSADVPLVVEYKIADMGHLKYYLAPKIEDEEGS
UniProt Q9UNS1: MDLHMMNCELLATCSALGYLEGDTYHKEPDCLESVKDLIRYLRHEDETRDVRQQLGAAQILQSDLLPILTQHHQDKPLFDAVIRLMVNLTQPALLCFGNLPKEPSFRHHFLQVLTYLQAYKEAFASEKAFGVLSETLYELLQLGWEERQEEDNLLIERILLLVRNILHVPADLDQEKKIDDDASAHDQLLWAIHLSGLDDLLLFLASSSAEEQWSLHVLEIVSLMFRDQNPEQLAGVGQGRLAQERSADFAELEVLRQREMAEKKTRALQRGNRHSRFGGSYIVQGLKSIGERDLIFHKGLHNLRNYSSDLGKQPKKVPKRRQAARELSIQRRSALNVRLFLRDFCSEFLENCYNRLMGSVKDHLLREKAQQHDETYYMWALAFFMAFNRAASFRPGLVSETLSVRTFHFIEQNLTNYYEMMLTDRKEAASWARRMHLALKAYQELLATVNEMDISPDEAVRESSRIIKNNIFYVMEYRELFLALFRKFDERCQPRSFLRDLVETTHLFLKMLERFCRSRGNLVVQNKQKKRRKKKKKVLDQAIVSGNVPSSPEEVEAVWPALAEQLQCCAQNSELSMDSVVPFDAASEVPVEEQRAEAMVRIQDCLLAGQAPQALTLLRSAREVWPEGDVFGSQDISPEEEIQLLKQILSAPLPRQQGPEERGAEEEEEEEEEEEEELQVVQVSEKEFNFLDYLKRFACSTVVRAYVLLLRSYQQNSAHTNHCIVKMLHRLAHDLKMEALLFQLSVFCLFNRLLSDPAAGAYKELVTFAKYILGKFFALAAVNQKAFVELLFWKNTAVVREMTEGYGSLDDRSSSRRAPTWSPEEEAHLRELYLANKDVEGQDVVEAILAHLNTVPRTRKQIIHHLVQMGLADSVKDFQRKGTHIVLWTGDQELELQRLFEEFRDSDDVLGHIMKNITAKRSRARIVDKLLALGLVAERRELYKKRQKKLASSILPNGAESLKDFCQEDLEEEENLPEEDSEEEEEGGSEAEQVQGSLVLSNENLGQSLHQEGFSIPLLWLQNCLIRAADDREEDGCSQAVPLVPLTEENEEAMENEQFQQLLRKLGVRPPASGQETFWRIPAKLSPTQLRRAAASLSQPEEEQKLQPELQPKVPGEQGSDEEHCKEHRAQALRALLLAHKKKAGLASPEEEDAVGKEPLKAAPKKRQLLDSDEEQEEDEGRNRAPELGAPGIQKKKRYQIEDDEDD

For experiment [1], the target named is PCNA (human (endogenous in HeLa Kyoto)) (UniProt P12004). The experiment can be described thus: proximity ligation; Duolink in situ PLA on fixed HeLa Kyoto cells, non-S-phase cells.
For experiment [2] the target is unchanged. Nature of the experiment: condition: only after replication stress (10 mM HU for 1 h or 150 µM APH for 30 min); proximity ligation; Duolink in situ PLA on fixed HeLa Kyoto cells, S-phase cells after replication stress (10 mM HU for 1 h or 150 µM APH for 30 min).

No constants are given. Whether binding was seen depends on the method and setting. In cells and extracts the contact can be indirect.

Timeless (from UniProt Q9UNS1 1-1208): the binding result in experiment [1] was “no binding (condition: non-S-phase cells)”; in experiment [2] it was “no binding”.
